According to the supplement of paper PMC11006884:
The targets with a hit were mostly taken out for another list; the other results follow. Single values of this set are uncertain. The entries are a selection whose mix differs from that of the whole data set.

The targets below were run with COC(=O)/C=C/c1ccccc1 [methyl cinnamate] (assay: log2 ratio of iodoacetamide-alkyne labeling of the cysteine site, DMSO over compound (competition); higher = stronger covalent engagement of the cysteine by the compound, active = 1 or more). Settings: 500 µM; treatment time 1 h; system: HEK293T cell lysate.
Procedure, shortened: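 For each cysteine, the log2 competition ratio is mean control-channel reporter intensity over mean compound-channel reporter intensity. HEK293T lysate (2 mg/mL) was exposed to vehicle or electrophile (500 µM, 1 h, ambient temperature), labelled with iodoacetamide alkyne (1 h), clicked to sCIP-TMT reagents, digested overnight with trypsin at 37 °C, streptavidin-enriched and analysed by Orbitrap Eclipse LC-MS/MS with FAIMS and FragPipe. Cysteines quantified in only one of three replicates, each with duplicate channels, were excluded.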

log2 ratio of iodoacetamide-alkyne labeling, inactive:
NDUFS1 C128 (UniProt P28331) -0.0316
FECH C196 (UniProt P22830) 0.136
GLDC C795 (UniProt P23378) -0.116
LIG1 C532 (UniProt P18858) 0.258
PFKL C708 (UniProt P17858) 0.053
PML C227 (UniProt P29590) 0.159
LAP3 C462 (UniProt P28838) -0.262
EIF2S2 C226 (UniProt P20042) 0.0103
POLD1 C873 (UniProt P28340) 0.153
EEF1B2 C161 (UniProt P24534) -0.0525
TCEA1 C271 (UniProt P23193) 0.081
MPG C61 (UniProt P29372) 0.176
TKT C206 (UniProt P29401) -0.182
MSH3 C166 (UniProt P20585) 0.545
PEBP1 C133 (UniProt P30086) 0.186
COMT C223 (UniProt P21964) 0.232
TCP1 C385 (UniProt P17987) -0.0104
GART C134 (UniProt P22102) 0.132
TCP1 C236 (UniProt P17987) 0.216
RCC1 C93 (UniProt P18754) 0.174
AHCY C421 (UniProt P23526) 0.042
PRDX5 C100 (UniProt P30044) 0.177
DCK C45 (UniProt P27707) 0.548
ERP29 C157 (UniProt P30040) 0.0552
FLNA C574 (UniProt P21333) 0.318
FBL C99 (UniProt P22087) 0.166
FLNA C1260 (UniProt P21333) 0.318
PTBP1 C251 (UniProt P26599) 0.123
POLD1 C837 (UniProt P28340) 0.278
BTF3 C22 (UniProt P20290) 0.551
FLNA C1997 (UniProt P21333) 0.0016
SCP2 C94 (UniProt P22307) -0.0672
TCP1 C218 (UniProt P17987) -0.342
UniProt P28290_C901 0.285
PTPN1 C32 (UniProt P18031) 0.0773
CAD C252 (UniProt P27708) -0.248
UniProt P28290_C448 0.0774

Looked up one by one from the list above:
log2 ratio of iodoacetamide-alkyne labeling, inactive:
TKT C206 (UniProt P29401) -0.182
MSH3 C166 (UniProt P20585) 0.545
